Source: patent US20050112731A1
Results are given in words; binding and its absence hold for the method and conditions named. Some binding calls cover weakened binding; strength is not graded here.

Target: selenomethionyl serine acetyltransferase (SAT) from Escherichia coli, recombinant, expressed from pQE-SAT (Escherichia coli) (UniProt P0A9D4)
Experiment: X-ray crystal structure (MAD, 2.7 Å); self-association of subunits

binding: binds
B1: selenomethionyl serine acetyltransferase (SAT) from Escherichia coli, recombinant, expressed from pQE-SAT (enzyme)
chain: MPCEELEIVWNNIKAEARTLADCEPMLASFYHATLLKHENLGSALSYMLANKLSSPIMPAIAIREVVEEAYAADPEMIASAACDIQAVRTRDPAVDKYSTPLLYLKGFHALQAYRIGHWLWNQGRRALAIFLQNQVSVTFQVDIHPAAKIGRGIMLDHATGIVVGETAVIENDVSILQSVTLGGTGKSGGDRHPKIREGVMIGAGAKILGNIEVGRGAKIGAGSVVLQPVPPHTTAAGVPARIVGKPDSDKPSMDMDQHFNGINHTFEYGDGI
modifications: selenomethionine in place of methionine (selenomethionyl SAT)
